Experimental data taken from article doi:10.1101/2019.12.16.876623 (bioRxiv, 2019).

Biological target: T1, Mlh3-Flag (Mlh3 with an internal His6-Flag3 tag) (S. cerevisiae) (UniProt Q12083)
T1 sequence: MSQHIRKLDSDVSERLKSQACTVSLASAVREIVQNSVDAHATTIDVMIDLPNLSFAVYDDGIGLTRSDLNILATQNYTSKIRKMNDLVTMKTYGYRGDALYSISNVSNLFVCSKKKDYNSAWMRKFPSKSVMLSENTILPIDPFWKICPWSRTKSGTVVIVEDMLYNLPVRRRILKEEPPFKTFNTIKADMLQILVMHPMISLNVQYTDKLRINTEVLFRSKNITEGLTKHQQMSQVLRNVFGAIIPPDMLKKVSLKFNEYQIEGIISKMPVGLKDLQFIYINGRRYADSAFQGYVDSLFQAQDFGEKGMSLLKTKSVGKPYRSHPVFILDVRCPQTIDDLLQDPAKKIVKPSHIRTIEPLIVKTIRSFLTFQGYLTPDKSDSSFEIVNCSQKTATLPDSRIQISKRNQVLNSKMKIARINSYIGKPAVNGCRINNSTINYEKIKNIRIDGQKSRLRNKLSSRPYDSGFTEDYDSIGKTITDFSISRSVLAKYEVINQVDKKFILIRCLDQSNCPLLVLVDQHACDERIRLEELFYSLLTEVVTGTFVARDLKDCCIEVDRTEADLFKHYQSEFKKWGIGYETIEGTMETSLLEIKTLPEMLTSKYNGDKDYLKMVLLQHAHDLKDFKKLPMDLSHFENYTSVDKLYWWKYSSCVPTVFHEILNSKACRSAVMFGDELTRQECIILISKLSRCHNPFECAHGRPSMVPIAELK
Assay: affinity purification with mass spectrometry

binding: binds
B1: Pms1 (found by mass spectrometry in the Mlh3-Flag pull-down) (protein, UniProt P14242 1-873)
chain: MTQIHQINDIDVHRITSGQVITDLTTAVKELVDNSIDANANQIEIIFKDYGLESIECSDNGDGIDPSNYEFLALKHYTSKIAKFQDVAKVQTLGFRGEALSSLCGIAKLSVITTTSPPKADKLEYDMVGHITSKTTTSRNKGTTVLVSQLFHNLPVRQKEFSKTFKRQFTKCLTVIQGYAIINAAIKFSVWNITPKGKKNLILSTMRNSSMRKNISSVFGAGGMRGLEEVDLVLDLNPFKNRMLGKYTDDPDFLDLDYKIRVKGYISQNSFGCGRNSKDRQFIYVNKRPVEYSTLLKCCNEVYKTFNNVQFPAVFLNLELPMSLIDVNVTPDKRVILLHNERAVIDIFKTTLSDYYNRQELALPKRMCSQSEQQAQKRLKTEVFDDRSTTHESDNENYHTARSESNQSNHAHFNSTTGVIDKSNGTELTSVMDGNYTNVTDVIGSECEVSVDSSVVLDEGNSSTPTKKLPSIKTDSQNLSDLNLNNFSNPEFQNITSPDKARSLEKVVEEPVYFDIDGEKFQEKAVLSQADGLVFVDNECHEHTNDCCHQERRGSTDTEQDDEADSIYAEIEPVEINVRTPLKNSRKSISKDNYRSLSDGLTHRKFEDEILEYNLSTKNFKEISKNGKQMSSIISKRKSEAQENIIKNKDELEDFEQGEKYLTLTVSKNDFKKMEVVGQFNLGFIIVTRKVDNKYDLFIVDQHASDEKYNFETLQAVTVFKSQKLIIPQPVELSVIDELVVLDNLPVFEKNGFKLKIDEEEEFGSRVKLLSLPTSKQTLFDLGDFNELIHLIKEDGGLRRDNIRCSKIRSMFAMRACRSSIMIGKPLNKKTMTRVVHNLSELDKPWNCPHGRPTMRHLMELRDWSSFSKDYEI

Results are given in words; binding and its absence hold for the method and conditions named. Binding seen in cells or lysates may run through a third protein. Here binding means that the protein was enriched with, or labelled near, the bait; the list need not be complete. Where a sequence is shown, tags or fusion partners need not be part of it.
